Laboratory results: article PMC10791687, “The Piezo channel is a mechano-sensitive complex component in the mammalian inner ear hair cell” (Nature Communications, 2024)
No constants are given. Whether binding was seen depends on the method and setting. In cells and extracts the contact can be indirect. Some entries that bind do so weakly or less than the wild type. For some assays here: Tags and fused reporters may be left off the sequences shown.

The chains behind the UniProt entries cited, without tags or fusion partners.
UniProt E2JF22: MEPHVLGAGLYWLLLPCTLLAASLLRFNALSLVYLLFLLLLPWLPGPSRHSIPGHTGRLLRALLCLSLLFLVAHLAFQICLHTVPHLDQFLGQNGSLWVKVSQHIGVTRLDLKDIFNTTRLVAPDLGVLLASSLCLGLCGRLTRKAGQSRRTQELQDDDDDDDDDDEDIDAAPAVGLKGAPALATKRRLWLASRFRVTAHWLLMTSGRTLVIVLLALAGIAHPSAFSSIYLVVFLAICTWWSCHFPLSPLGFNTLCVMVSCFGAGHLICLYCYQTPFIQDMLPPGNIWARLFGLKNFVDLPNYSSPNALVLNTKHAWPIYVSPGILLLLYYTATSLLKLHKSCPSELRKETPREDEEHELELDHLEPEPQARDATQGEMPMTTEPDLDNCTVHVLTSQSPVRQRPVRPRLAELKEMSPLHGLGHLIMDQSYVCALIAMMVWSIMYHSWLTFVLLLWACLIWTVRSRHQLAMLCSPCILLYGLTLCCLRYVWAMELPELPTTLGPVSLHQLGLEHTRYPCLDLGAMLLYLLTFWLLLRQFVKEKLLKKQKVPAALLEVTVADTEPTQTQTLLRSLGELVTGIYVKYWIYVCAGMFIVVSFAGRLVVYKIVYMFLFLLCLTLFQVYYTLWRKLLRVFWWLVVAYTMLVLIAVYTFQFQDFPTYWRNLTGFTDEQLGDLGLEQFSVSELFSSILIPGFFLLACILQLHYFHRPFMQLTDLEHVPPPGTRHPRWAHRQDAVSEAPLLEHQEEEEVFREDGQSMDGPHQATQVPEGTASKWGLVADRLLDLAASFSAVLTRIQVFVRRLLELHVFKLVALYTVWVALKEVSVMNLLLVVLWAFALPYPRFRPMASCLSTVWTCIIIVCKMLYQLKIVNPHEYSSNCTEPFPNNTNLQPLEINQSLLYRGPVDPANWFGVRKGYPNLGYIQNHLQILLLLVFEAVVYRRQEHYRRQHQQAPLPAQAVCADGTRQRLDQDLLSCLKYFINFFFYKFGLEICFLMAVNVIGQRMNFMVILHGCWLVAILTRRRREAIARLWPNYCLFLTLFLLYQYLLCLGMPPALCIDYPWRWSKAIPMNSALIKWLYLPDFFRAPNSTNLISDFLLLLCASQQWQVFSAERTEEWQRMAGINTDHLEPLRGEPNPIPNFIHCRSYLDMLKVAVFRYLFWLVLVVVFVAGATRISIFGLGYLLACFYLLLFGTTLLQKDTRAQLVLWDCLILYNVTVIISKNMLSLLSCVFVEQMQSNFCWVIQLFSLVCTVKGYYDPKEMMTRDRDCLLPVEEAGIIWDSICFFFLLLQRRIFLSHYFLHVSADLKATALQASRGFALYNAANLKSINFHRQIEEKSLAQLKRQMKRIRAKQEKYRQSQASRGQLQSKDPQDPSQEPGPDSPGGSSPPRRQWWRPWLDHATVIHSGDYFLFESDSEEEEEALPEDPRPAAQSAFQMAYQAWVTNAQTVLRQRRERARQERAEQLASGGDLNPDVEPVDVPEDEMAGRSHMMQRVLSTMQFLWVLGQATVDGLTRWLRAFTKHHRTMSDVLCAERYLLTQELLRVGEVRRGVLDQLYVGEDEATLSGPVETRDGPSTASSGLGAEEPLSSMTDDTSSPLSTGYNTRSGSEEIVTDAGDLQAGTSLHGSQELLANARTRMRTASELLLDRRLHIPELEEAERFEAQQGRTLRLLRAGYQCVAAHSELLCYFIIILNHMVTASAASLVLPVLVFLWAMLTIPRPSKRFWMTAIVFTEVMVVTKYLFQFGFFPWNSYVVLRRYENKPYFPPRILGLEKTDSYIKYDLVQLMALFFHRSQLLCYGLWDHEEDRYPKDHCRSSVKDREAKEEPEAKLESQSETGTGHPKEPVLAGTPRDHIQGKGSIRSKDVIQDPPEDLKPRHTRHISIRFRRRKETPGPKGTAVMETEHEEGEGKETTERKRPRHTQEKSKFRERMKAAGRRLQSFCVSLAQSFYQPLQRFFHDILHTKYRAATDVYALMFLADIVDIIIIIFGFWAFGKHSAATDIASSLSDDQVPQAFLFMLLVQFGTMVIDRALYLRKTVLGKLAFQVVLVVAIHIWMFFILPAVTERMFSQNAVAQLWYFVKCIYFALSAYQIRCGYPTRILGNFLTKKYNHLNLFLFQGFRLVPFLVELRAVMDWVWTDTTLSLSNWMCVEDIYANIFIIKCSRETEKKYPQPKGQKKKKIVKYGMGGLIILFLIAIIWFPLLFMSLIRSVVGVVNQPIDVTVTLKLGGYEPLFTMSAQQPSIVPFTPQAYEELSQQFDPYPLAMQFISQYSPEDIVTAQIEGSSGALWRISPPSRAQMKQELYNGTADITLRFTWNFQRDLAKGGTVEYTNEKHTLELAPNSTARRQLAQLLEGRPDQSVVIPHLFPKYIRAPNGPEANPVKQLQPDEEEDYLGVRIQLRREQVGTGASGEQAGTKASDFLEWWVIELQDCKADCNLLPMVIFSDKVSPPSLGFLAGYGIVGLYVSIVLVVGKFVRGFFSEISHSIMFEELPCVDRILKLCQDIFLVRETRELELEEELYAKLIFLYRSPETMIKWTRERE
UniProt Q92508: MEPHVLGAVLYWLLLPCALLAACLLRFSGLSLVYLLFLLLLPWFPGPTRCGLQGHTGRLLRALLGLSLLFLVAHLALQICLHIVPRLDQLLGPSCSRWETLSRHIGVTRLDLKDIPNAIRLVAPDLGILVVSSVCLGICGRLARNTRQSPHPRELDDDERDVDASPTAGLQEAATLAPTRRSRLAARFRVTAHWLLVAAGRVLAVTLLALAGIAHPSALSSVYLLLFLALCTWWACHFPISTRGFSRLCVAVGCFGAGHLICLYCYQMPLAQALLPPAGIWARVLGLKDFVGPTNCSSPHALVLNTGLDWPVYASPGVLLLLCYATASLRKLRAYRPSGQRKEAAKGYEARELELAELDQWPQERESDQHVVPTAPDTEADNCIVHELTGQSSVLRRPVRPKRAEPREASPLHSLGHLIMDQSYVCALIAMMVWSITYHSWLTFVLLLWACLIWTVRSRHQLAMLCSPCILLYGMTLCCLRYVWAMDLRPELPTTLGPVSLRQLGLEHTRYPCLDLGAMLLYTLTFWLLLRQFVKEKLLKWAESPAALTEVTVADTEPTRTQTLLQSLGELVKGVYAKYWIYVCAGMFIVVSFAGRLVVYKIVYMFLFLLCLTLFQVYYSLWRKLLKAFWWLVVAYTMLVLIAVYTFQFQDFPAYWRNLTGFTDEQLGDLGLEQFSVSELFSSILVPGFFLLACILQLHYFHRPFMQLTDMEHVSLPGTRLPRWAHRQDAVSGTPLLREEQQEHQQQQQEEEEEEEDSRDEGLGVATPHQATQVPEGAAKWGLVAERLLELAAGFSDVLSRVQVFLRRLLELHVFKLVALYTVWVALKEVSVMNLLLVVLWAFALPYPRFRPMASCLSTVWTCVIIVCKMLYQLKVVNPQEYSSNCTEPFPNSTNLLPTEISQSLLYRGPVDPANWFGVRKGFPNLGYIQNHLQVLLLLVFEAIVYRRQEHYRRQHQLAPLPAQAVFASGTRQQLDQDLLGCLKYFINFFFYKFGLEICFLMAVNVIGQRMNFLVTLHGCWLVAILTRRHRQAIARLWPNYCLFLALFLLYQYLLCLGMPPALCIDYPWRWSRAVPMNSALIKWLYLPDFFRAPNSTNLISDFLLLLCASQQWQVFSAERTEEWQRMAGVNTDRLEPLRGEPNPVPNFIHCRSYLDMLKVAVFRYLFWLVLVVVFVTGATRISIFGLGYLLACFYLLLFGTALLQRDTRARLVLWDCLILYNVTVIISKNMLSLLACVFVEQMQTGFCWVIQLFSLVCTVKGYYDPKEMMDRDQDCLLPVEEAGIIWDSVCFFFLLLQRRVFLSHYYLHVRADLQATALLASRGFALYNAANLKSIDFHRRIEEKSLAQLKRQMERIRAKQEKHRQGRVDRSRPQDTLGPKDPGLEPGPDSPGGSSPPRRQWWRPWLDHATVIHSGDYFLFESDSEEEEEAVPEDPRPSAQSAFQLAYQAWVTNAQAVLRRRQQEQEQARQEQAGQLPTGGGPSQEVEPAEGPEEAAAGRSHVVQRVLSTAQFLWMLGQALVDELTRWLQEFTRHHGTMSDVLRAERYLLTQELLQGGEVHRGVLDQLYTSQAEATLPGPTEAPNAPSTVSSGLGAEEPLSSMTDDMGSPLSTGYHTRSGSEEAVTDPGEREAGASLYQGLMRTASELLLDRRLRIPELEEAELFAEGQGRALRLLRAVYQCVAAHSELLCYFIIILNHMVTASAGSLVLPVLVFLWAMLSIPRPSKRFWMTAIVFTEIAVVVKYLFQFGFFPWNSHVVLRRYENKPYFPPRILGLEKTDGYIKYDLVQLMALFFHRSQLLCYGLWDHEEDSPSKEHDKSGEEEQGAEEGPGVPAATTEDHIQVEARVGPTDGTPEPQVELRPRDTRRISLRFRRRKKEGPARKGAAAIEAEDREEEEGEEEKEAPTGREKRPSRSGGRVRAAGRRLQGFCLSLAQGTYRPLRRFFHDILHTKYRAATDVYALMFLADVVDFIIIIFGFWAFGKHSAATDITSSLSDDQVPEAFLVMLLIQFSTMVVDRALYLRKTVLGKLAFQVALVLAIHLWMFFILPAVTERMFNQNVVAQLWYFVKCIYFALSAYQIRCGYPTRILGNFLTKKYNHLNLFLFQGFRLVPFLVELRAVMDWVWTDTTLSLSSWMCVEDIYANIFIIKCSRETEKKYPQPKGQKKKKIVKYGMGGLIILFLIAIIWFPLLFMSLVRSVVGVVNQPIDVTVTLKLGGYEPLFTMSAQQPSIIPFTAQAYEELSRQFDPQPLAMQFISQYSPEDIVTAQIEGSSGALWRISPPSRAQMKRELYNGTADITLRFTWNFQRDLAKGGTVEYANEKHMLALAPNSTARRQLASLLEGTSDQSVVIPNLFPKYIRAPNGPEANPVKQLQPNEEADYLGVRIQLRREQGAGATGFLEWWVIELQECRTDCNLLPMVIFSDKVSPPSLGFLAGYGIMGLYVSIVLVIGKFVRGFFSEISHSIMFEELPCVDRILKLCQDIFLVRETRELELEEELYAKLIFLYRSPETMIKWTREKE

Tests used:
[1] = molecular target: T1, Tmc2-AcGFP fusion protein, transgenic mouse (mouse) (UniProt Q8R4P4); assay: co-IP; cochlear tissue of Tmc2-AcGFP: Pz1-tdT and Tmc1-mCherry: Pz2-GFP mice homogenized in Pierce IP lysis buffer; lysate with GFP-antibody at 4 °C overnight, Dynabeads Protein G; immunoblot with anti-tdTomato or anti-mCherry; negative controls from non-transgenic cochlear tissue
T1 sequence: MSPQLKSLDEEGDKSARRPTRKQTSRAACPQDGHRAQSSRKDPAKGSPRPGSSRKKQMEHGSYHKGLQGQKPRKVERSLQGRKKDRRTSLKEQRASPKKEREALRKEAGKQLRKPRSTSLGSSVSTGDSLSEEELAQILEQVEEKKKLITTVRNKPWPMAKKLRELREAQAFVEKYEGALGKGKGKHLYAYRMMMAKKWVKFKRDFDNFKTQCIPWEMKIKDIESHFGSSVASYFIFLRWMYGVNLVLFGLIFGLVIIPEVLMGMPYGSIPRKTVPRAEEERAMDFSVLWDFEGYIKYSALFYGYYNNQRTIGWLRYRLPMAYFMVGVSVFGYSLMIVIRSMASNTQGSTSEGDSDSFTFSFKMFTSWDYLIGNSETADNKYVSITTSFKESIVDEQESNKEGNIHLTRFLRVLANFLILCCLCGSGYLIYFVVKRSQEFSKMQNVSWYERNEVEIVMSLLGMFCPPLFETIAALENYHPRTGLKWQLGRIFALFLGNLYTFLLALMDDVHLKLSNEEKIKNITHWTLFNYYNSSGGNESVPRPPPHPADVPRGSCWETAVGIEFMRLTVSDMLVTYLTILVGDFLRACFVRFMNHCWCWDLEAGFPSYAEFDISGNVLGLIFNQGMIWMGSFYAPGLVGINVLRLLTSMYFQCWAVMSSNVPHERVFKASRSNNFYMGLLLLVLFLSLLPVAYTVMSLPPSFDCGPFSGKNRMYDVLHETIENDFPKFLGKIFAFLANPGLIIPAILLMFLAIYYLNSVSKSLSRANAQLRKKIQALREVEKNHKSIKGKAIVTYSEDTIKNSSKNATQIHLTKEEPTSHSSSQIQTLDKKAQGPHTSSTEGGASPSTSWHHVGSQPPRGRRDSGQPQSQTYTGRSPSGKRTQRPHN

[2] = molecular target: HA-tagged mouse protocadherin15 expressed in HEK 293 cells (mouse) (UniProt Q99PJ1); assay: co-IP; HEK 293 cells transiently co-transfected with Flag-mPz1 and one tagged partner; IP lysis buffer, antibody on Dynabeads Protein G, 20 min at RT; IP with anti-FLAG, anti-mCherry, anti-His, anti-Myc, anti-HA or anti-V5, Western blot with the tag antibodies
[3] = molecular target: T2, His-tagged mouse Tmie expressed in HEK 293 cells (mouse) (UniProt Q8K467); assay: as above
T2 sequence: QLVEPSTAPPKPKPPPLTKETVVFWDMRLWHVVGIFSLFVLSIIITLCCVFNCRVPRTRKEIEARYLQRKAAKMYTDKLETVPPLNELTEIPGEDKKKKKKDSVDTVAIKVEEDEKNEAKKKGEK

[4] = molecular target: T3, V5-tagged mouse Cib2 expressed in HEK 293 cells (mouse) (UniProt Q9Z309); assay: as above
T3 sequence: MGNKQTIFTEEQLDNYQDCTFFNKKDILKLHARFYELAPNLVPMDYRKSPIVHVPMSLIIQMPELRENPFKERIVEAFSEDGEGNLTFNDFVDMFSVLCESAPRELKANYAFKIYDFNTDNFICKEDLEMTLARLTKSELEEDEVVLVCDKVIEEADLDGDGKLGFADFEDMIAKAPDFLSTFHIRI

[5] = molecular target: T4, mCherry-tagged mouse Tmc1 expressed in HEK 293 cells (mouse) (UniProt Q8R4P5); assay: as above
T4 sequence: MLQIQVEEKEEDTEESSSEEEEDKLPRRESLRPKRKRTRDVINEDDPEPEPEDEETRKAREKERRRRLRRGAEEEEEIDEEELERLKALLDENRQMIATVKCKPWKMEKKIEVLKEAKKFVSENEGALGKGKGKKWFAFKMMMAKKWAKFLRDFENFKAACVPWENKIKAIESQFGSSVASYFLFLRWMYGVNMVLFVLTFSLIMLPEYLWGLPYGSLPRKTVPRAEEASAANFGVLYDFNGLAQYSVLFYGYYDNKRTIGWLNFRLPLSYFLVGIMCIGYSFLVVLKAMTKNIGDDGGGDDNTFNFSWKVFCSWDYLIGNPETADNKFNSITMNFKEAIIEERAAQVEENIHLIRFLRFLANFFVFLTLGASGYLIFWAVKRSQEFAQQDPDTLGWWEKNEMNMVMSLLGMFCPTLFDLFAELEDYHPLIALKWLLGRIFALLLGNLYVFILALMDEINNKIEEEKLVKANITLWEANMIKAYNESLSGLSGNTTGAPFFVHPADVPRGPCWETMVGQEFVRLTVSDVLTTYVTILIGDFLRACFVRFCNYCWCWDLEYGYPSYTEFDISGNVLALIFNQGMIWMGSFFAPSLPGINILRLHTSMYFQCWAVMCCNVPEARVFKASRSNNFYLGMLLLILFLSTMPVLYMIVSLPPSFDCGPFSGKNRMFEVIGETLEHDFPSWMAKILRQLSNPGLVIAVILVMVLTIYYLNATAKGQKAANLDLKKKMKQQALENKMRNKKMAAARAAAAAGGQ

[6] = molecular target: T5, mCherry-tagged mouse Tmc2 expressed in HEK 293 cells (mouse) (UniProt Q8R4P4); assay: as above
T5 sequence: T1 sequence

[7] = molecular target: T4, mCherry-tagged mouse Tmc1 expressed in HEK 293 cells (mouse); assay: co-IP; HEK 293 cells transiently transfected with mCherry-Tmc1 or mCherry-Tmc2; endogenous Pz1 in the precipitate detected with anti-mPz1
[8] = molecular target: T5, mCherry-tagged mouse Tmc2 expressed in HEK 293 cells (mouse); assay: as above

With “Piezo1-tdTomato fusion protein (Pz1-tdT), knock-in mouse (from UniProt E2JF22 1-2547)” the binding [1] was “binds”.
For “FLAG-tagged mouse Piezo1 expressed in HEK 293 cells (from UniProt E2JF22 1-2547)”, the binding [2] was “binds”, the binding [3] was “binds” and the binding [4] was “binds”. The binding [5] was “binds” and the binding [6] was “binds”.
For “Pz1 endogenously expressed in HEK 293 cells (from UniProt Q92508 1-2521)”, the binding [7] was “binds” and the binding [8] was “binds”.
